The supplement of paper PMC6411743
± gives the standard deviation of the averaged measurements. The entries are a selection whose mix differs from that of the whole data set.

What was measured:
Experiment in all cases: NP40-soluble protein abundance relative to vehicle (solubility fold change) (ratio); higher = more soluble protein in presence of AMP-PNP
[1] = molecular target: T1, UniProt Q9NQ86-4|E9PBG3 and related entries
T1 sequence (whole entry): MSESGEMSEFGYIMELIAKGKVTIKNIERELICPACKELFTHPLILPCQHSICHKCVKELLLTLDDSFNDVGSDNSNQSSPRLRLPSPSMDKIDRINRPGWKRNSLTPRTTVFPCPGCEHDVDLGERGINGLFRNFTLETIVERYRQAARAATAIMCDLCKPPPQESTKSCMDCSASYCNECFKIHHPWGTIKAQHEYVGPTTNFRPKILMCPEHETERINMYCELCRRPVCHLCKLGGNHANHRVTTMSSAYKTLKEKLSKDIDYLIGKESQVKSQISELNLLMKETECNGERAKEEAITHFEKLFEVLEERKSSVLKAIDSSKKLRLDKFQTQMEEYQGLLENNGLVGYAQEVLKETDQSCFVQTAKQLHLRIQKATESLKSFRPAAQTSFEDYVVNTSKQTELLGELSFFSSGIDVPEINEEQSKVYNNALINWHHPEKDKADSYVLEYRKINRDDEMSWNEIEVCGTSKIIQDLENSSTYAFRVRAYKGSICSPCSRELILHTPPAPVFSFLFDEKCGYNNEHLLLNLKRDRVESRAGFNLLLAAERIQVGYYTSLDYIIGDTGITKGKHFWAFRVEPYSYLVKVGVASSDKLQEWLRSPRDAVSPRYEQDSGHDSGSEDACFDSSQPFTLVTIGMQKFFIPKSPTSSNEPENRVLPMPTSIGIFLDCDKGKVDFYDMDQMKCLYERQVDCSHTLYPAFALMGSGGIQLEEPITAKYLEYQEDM
Method in brief: (§1)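 Data come from three independent experiments in which Dounce-homogenised Jurkat crude lysate was treated at eight concentrations from 0.1 to 10 mM. Treatment ran 10 min at room temperature and then 3 min at 37 °C, after which 0.8% NP40 and benzonase were added for 60 min at 4 °C before ultracentrifugation. The supernatant underwent TMT labelling and LC-MS/MS, and vsn-normalised intensities were expressed as fold change against the detergent-processed vehicle in each replicate.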

[2] = molecular target: T2, UniProt Q9NQC7 and related entries
T2 sequence (whole entry): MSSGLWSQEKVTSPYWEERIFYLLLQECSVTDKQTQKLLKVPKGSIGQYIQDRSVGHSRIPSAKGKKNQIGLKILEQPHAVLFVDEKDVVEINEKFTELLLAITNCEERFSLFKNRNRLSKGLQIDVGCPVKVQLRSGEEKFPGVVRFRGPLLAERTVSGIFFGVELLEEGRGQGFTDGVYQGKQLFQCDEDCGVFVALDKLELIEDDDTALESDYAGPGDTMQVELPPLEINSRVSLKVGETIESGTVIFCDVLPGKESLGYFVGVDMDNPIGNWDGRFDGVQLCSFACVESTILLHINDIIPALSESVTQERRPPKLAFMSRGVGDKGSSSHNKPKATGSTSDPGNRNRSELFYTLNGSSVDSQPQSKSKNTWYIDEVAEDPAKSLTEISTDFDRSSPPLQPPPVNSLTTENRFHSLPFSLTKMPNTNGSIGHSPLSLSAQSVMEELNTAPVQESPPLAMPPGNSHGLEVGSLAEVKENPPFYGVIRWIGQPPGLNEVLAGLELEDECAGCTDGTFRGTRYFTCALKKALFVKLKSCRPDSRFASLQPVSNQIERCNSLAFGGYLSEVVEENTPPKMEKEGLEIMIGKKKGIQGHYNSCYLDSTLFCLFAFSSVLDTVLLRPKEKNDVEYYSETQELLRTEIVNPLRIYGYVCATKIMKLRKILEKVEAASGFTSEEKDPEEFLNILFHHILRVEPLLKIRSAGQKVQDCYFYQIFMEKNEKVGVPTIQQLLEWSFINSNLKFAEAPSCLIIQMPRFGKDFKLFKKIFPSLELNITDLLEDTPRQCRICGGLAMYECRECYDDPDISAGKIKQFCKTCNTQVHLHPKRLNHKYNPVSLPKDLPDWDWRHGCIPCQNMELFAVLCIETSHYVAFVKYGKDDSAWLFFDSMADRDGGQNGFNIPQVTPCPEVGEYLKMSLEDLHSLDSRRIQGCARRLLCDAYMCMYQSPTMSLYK
Method in brief: as §1

[3] = molecular target: T3, UniProt Q9NRL3 and related entries
T3 sequence (whole entry): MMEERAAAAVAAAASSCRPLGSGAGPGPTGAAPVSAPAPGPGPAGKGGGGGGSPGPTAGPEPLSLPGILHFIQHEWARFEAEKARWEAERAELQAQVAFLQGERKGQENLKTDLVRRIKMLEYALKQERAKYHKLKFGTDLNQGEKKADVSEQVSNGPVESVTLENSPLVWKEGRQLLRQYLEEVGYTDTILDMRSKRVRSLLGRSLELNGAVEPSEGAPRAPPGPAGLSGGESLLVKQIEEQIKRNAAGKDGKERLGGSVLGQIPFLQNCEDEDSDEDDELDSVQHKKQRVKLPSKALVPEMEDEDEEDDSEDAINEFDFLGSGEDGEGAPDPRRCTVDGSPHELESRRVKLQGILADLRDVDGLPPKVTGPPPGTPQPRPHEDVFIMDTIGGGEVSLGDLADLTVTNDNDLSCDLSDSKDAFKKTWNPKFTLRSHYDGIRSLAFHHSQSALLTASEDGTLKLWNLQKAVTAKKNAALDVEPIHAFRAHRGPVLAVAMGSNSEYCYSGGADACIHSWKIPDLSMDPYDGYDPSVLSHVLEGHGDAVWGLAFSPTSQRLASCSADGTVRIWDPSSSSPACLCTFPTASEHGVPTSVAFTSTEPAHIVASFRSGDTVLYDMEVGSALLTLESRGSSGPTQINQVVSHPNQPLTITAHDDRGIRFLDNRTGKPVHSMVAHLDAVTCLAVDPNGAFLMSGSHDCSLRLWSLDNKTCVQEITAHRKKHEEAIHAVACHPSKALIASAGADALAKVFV
Method in brief: as §1

[4] = molecular target: T4, UniProt Q9NSI8 and related entries
T4 sequence (whole entry): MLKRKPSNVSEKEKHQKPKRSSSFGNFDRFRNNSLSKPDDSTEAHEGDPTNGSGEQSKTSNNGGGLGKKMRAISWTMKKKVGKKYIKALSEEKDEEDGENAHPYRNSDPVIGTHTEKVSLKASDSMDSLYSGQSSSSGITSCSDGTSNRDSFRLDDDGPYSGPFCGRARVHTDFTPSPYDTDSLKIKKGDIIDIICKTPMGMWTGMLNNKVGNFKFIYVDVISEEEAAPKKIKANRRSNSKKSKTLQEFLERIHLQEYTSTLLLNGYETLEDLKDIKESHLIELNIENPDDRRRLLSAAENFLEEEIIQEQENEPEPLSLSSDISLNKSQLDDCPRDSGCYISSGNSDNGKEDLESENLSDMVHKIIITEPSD
Method in brief: as §1

[5] = molecular target: T5, UniProt Q9NUS5
T5 sequence (whole entry): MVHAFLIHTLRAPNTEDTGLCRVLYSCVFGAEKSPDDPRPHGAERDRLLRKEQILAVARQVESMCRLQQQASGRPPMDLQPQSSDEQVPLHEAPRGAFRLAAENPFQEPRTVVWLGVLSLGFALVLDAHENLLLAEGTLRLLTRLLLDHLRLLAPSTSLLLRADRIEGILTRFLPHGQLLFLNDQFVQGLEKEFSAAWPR
Method in brief: as §1

Nc1ncnc2c1ncn2[C@@H]1O[C@H](COP(=O)(O)OP(=O)(O)NP(=O)(O)O)[C@@H](O)[C@H]1O [adenylyl imidodiphosphate]
NP40-soluble protein abundance ([1]; concentration: 6mM): 0.998 ± 0.017 | NP40-soluble protein abundance ([1]; concentration: 8mM): 1 ± 0.044 | NP40-soluble protein abundance ([1]; concentration: 10mM): 1.01 ± 0.023 | NP40-soluble protein abundance ([2]; concentration: 1mM): 1.02 ± 0.037 | NP40-soluble protein abundance ([2]; concentration: 2mM): 1.06 ± 0.07 | NP40-soluble protein abundance ([2]; concentration: 4mM): 1.04 ± 0.023 | NP40-soluble protein abundance ([2]; concentration: 6mM): 1.03 ± 0.053 | NP40-soluble protein abundance ([2]; concentration: 8mM): 1.03 ± 0.024 | NP40-soluble protein abundance ([2]; concentration: 10mM): 1.05 ± 0.064 | NP40-soluble protein abundance ([3]; concentration: 1mM): 0.983 ± 0.056 | NP40-soluble protein abundance ([3]; concentration: 2mM): 1.01 ± 0.042 | NP40-soluble protein abundance ([3]; concentration: 4mM): 1 ± 0.058 | NP40-soluble protein abundance ([3]; concentration: 6mM): 1.01 ± 0.08 | NP40-soluble protein abundance ([3]; concentration: 8mM): 0.978 ± 0.042 | NP40-soluble protein abundance ([3]; concentration: 10mM): 0.981 ± 0.059 | NP40-soluble protein abundance ([4]; concentration: 1mM): 1.02 ± 0.033 | NP40-soluble protein abundance ([4]; concentration: 2mM): 1.03 ± 0.022 | NP40-soluble protein abundance ([4]; concentration: 4mM): 1.03 ± 0.036 | NP40-soluble protein abundance ([4]; concentration: 6mM): 1.04 ± 0.062 | NP40-soluble protein abundance ([4]; concentration: 8mM): 1.05 ± 0.049 | NP40-soluble protein abundance ([4]; concentration: 10mM): 1.04 ± 0.026 | NP40-soluble protein abundance ([5]; concentration: 1mM): 0.96 ± 0.016 | NP40-soluble protein abundance ([5]; concentration: 2mM): 0.936 ± 0.051 | NP40-soluble protein abundance ([5]; concentration: 4mM): 0.963 ± 0.02 | NP40-soluble protein abundance ([5]; concentration: 6mM): 0.948 ± 0.012
